Assay results published in the supplement of paper PMC10849652.
The other results are listed elsewhere or left out.

The chains behind the UniProt entries cited, without tags or fusion partners. Where a name states a change or a piece, a line headed by the entry shows the natural chain unless it says otherwise.
UniProt Q5JRX3: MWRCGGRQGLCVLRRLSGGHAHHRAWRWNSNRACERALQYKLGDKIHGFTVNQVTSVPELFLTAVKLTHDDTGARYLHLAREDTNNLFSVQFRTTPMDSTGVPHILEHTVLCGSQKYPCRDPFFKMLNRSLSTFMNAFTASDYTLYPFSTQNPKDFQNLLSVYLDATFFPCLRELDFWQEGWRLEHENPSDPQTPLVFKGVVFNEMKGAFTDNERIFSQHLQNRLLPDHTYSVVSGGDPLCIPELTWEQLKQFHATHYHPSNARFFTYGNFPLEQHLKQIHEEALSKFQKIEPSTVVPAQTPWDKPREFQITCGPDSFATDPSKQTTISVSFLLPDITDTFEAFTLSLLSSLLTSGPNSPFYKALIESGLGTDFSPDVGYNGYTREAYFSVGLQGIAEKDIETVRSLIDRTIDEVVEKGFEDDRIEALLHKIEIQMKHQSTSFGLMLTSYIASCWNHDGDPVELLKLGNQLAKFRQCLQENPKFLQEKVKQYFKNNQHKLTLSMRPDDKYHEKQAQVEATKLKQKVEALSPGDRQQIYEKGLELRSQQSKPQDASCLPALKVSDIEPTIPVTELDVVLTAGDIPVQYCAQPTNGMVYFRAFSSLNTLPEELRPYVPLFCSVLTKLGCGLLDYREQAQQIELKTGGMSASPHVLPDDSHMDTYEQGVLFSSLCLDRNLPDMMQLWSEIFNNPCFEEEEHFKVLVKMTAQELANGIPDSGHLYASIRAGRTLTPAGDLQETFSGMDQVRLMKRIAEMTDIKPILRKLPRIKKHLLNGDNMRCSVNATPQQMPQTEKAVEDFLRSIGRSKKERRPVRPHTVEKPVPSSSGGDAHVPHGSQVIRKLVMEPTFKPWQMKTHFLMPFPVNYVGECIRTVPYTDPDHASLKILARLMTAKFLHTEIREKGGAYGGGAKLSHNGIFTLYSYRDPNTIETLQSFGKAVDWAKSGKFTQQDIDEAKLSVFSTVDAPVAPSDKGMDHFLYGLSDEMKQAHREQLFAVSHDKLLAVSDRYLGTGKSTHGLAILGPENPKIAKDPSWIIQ
UniProt Q16512: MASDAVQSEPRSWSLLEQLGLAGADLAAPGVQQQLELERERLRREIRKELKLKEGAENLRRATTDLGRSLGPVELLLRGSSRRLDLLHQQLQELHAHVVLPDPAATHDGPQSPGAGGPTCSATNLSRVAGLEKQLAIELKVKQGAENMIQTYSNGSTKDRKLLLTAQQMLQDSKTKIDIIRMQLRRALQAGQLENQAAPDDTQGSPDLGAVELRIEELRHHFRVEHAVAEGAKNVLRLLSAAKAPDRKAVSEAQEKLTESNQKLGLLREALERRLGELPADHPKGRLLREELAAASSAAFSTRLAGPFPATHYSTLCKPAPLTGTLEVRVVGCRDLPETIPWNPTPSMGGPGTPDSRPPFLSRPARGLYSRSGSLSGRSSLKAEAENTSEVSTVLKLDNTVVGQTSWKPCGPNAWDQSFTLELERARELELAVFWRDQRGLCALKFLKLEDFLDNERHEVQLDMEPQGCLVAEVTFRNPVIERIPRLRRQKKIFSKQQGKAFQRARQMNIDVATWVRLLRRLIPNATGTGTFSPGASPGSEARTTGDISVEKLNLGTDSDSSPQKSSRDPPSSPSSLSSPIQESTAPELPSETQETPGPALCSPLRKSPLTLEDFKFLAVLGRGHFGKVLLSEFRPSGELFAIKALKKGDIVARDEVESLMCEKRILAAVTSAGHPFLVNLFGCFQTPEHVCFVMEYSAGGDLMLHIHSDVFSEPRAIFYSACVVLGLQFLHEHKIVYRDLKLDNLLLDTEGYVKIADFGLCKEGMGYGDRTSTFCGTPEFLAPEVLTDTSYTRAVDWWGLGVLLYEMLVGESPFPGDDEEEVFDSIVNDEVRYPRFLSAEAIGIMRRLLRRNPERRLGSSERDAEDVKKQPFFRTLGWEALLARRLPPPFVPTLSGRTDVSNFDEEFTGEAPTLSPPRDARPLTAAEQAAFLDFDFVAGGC
UniProt Q9HAU0: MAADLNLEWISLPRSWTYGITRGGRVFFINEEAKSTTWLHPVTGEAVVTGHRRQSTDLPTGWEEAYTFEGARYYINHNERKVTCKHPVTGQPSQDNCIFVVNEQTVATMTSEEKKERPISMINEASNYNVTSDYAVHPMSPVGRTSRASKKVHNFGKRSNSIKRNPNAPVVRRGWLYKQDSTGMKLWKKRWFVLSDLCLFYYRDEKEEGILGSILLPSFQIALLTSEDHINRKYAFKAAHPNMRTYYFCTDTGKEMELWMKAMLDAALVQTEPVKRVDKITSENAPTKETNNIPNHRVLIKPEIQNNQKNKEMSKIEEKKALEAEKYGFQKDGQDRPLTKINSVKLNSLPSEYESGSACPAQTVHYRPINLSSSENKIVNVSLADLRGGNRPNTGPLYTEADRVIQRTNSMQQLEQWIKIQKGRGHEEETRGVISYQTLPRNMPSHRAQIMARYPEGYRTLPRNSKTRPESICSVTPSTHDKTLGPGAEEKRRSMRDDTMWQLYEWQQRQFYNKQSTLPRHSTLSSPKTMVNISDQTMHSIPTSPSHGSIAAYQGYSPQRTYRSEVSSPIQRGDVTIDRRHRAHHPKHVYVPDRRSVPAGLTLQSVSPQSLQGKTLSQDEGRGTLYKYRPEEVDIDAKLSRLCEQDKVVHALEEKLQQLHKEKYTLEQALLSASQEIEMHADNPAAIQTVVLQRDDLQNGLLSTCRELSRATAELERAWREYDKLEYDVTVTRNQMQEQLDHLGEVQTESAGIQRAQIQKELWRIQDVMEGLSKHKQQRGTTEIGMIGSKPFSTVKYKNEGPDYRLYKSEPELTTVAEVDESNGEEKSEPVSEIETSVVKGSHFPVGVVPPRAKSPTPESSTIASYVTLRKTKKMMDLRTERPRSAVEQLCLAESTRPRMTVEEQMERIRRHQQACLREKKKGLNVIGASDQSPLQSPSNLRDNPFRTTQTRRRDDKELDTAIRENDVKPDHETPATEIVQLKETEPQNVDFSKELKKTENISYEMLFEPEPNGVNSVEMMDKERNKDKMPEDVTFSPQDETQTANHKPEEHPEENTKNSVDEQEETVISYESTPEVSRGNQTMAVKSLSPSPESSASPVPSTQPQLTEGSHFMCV
UniProt Q13393: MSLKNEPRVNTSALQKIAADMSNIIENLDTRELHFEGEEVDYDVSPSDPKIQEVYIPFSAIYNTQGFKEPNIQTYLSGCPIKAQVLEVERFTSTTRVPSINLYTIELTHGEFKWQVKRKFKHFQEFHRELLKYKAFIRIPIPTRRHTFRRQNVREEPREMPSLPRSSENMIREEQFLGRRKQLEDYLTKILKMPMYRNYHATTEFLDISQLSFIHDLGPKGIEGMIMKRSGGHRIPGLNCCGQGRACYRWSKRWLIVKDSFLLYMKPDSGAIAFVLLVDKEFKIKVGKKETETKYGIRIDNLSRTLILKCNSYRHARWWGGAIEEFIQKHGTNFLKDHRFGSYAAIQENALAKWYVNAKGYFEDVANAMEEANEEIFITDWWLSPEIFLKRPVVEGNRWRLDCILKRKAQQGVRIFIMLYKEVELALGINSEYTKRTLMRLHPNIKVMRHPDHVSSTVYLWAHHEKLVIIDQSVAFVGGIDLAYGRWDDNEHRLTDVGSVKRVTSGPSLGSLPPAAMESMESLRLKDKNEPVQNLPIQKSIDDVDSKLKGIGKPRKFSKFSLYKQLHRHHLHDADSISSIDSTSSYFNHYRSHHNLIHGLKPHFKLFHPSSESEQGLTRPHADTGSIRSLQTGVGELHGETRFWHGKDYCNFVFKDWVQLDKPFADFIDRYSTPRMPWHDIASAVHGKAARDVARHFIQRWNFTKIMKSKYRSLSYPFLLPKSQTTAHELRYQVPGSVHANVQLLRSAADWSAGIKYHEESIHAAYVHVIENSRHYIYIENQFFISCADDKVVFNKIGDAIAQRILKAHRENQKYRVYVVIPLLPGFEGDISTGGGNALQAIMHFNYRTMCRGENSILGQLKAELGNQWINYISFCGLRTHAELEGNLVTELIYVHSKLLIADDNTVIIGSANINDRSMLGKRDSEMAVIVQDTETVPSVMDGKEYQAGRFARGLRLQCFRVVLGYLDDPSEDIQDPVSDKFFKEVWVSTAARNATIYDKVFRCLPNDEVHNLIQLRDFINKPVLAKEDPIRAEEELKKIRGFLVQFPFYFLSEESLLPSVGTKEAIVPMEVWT
UniProt O75167: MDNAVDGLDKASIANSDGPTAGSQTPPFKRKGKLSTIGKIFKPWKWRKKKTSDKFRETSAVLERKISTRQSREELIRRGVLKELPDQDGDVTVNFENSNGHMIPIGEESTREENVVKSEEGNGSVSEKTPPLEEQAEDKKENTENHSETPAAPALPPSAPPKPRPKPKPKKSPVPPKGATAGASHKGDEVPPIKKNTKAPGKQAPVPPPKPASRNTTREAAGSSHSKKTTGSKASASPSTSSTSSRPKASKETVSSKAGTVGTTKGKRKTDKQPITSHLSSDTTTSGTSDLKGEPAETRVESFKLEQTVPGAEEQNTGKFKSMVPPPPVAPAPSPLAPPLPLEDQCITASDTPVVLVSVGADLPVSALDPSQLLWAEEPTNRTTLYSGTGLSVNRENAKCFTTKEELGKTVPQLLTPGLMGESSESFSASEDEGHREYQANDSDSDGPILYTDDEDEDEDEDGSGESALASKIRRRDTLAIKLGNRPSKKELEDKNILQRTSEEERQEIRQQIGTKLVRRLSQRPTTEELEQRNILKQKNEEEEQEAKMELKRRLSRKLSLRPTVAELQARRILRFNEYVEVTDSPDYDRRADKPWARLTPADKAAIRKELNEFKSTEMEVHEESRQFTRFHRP
UniProt Q9UBF8: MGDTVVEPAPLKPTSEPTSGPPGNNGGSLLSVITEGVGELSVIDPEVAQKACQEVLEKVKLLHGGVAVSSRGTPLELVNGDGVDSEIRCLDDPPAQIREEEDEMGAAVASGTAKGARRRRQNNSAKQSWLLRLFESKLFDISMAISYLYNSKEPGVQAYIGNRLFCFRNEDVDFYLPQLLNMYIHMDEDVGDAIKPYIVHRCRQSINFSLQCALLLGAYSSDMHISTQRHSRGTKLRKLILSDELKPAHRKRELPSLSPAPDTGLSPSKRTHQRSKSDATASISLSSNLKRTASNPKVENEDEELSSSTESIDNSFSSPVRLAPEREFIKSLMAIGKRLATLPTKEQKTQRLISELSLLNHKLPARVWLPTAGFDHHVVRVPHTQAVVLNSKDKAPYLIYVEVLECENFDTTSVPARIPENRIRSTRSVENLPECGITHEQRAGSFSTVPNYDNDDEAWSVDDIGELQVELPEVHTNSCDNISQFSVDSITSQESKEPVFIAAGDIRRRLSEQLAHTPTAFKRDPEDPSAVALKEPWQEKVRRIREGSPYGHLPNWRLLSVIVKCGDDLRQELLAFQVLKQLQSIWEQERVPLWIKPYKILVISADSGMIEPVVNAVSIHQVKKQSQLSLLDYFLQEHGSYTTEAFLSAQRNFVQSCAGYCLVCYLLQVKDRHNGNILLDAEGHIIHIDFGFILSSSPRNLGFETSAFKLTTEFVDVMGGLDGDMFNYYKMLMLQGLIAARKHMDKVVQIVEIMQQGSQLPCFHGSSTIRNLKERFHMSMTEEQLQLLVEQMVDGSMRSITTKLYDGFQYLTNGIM
UniProt O00264: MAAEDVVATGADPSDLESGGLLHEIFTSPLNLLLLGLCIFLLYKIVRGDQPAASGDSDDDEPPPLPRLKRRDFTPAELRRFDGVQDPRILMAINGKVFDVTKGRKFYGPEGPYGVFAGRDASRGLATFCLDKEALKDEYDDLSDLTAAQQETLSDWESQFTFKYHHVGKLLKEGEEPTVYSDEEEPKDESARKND
UniProt Q96BD5: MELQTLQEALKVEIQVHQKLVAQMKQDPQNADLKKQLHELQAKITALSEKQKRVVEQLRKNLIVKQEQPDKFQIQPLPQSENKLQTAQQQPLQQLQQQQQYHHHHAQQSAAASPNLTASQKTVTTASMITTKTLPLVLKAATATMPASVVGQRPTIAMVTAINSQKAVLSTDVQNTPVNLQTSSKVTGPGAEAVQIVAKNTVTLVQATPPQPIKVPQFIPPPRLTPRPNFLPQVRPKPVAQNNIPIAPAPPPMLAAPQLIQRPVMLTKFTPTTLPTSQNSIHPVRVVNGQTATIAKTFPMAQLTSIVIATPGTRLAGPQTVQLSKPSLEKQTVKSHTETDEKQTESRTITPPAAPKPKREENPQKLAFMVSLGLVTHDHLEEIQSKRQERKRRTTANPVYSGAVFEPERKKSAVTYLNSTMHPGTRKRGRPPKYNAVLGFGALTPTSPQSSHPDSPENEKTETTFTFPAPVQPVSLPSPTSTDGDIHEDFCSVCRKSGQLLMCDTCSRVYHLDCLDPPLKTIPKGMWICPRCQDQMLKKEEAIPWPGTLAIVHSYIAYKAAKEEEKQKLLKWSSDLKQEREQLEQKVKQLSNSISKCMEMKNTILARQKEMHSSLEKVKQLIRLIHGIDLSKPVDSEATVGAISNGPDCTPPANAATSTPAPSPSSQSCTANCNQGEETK

Tests used:
Assay in all cases: log2 fold change, soluble protein after heating vs DMSO (PISA); higher = thermal stabilisation; K562 lysate, 10 uM; active = over 0.2 and 3.5 SD of the protein, either way, in both replicates (recomputed)
[1] = compound: CS(=O)(=O)CCNCc1ccc(-c2ccc3ncnc(Nc4ccc(OCc5cccc(F)c5)c(Cl)c4)c3c2)o1 [lapatinib]
Summary of the method: (§1)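 Pellets of K562 cells were dounce-homogenised in PBS pH 7.4 with 1 mM MgCl2, and the crude extract was held at 1 mg/mL protein for a 30 min treatment with 10 μM compound. Aliquots were heated for 3 min over 48°C-58°C and pooled before NP-40 was added to 0.5% at 4°C. The supernatant from 21,000xg for 90 min was quantified by TMTpro 16plex LC-MS/MS with channel sums equalised. Values are reported from duplicates as log-two fold change in thermal stability relative to solvent controls.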

[2] = compound: CS(=O)(=O)N1CCN(Cc2cc3nc(-c4cccc5[nH]ncc45)nc(N4CCOCC4)c3s2)CC1 [pictilisib]
Summary of the method: as §1

[3] = compound: C[C@@H](Oc1cc(-c2cnn(C3CCNCC3)c2)cnc1N)c1c(Cl)ccc(F)c1Cl [crizotinib]
Summary of the method: as §1

[4] = compound: C[C@H](C1=CC=C(C=C1)C(=O)NC2=C3C=CNC3=NC=C2)N
Summary of the method: as §1

[5] = compound: C[C@H](Nc1ncnc2nc[nH]c12)c1cc2cccc(Cl)c2c(=O)n1-c1ccccc1 [duvelisib]
Summary of the method: as §1

[6] = compound: Cc1cc(Nc2cc(CN3CCOCC3)c3nc(C)c(Cc4ccc(Cl)cc4F)n3n2)n[nH]1 [gandotinib]
Summary of the method: as §1

[7] = compound: Cc1cc(Nc2cc(N3CCN(C)CC3)nc(Sc3ccc(NC(=O)C4CC4)cc3)n2)n[nH]1 [tozasertib]
Summary of the method: as §1

[8] = compound: Cc1ccc(-n2nc(C(C)(C)C)cc2NC(=O)Nc2ccc(OCCN3CCOCC3)c3ccccc23)cc1 [doramapimod]
Summary of the method: as §1

[9] = compound: Cc1ccc(NC(=O)c2ccc(CN3CC[C@H](N(C)C)C3)c(C(F)(F)F)c2)cc1Nc1nccc(-c2cncnc2)n1 [bafetinib]
Summary of the method: as §1

[10] = compound: Cc1cccc(CC(=O)N2CCc3c2ccc(-c2cn(C)c4ncnc(N)c24)c3F)n1
Summary of the method: as §1

Measured: log2 fold change

PLBD1 (UniProt Q6P4A8)
inactive: [1] 0.056 | [2] 0.018 | [3] -0.035 | [4] -0.047 | [5] 0.001 | [6] 0.033 | [7] 0.006 | [8] 0 | [9] 0.043 | [10] 0.03

PLCH1 (UniProt Q4KWH8)
inactive: [1] 0.034 | [2] 0.01 | [3] 0.026 | [4] -0.039 | [5] 0.014 | [6] -0.1 | [7] 0.063 | [8] 0.032 | [9] -0.029 | [10] 0.104

PHKB isoform 3 (UniProt Q93100)
inactive: [1] -0.042 | [2] 0.025 | [3] 0.026 | [4] -0.126 | [5] -0.025 | [6] 0.127 | [7] -0.021 | [8] -0.061 | [9] -0.012 | [10] 0.027

PGS1 (UniProt Q32NB8)
inactive: [1] -0.095 | [2] -0.043 | [3] -0.171 | [4] -0.003 | [5] -0.002 | [6] 0.038 | [7] 0.026 | [8] 0.042 | [9] -0.254 | [10] -0.008

PLD3 (UniProt Q8IV08)
inactive: [1] -0.013 | [2] -0.029 | [3] -0.052 | [4] -0.063 | [5] 0.028 | [6] 0.029 | [7] 0 | [8] 0.044 | [9] 0.003 | [10] 0.087

PISD (UniProt Q9UG56)
inactive: [1] 0 | [2] -0.016 | [3] -0.124 | [4] 0.037 | [5] 0.032 | [6] -0.072 | [7] 0.055 | [8] -0.086 | [9] 0 | [10] -0.092

PHF5A (UniProt Q7RTV0)
inactive: [1] 0.028 | [2] 0.013 | [3] 0.091 | [4] -0.064 | [5] -0.014 | [6] 0.036 | [7] 0.026 | [8] -0.044 | [9] 0.058 | [10] 0.039

PITRM1 isoform 2 (UniProt Q5JRX3)
inactive: [1] -0.001 | [2] -0.025 | [3] 0.053 | [4] 0.04 | [5] 0.029 | [6] 0.013 | [7] 0.006 | [8] -0.024 | [9] -0.023 | [10] -0.062

PIKFYVE (UniProt Q9Y2I7)
inactive: [1] -0.039 | [2] -0.06 | [3] -0.002 | [4] -0.058 | [5] -0.013 | [6] 0.01 | [7] -0.014 | [8] 0.029 | [9] -0.053 | [10] 0.066

PKN1 isoform 2 (UniProt Q16512)
inactive: [1] 0.038 | [2] -0.005 | [3] -0.032 | [4] 0.095 | [5] -0.014 | [6] -0.233 | [7] -0.005 | [8] 0.108 | [9] -0.069 | [10] 0.04

PIP4K2A (UniProt P48426)
active: [9] 0.301
inactive: [1] -0.04 | [2] 0.032 | [3] 0.019 | [4] -0.089 | [5] 0.05 | [6] 0.109 | [7] 0.014 | [8] -0.035 | [10] 0.005

PIGT (UniProt Q969N2)
inactive: [1] -0.105 | [2] -0.059 | [3] -0.027 | [4] -0.082 | [5] -0.029 | [6] -0.035 | [7] 0.023 | [8] -0.01 | [9] -0.049 | [10] 0.043

PLCD1 isoform 2 (UniProt P51178)
inactive: [1] 0.023 | [2] -0.029 | [3] -0.084 | [4] -0.003 | [5] 0.042 | [6] -0.012 | [7] 0.054 | [8] 0.106 | [9] -0.011 | [10] -0.023

Reprinted from the listing (five entries):
PHF5A (UniProt Q7RTV0)
inactive: [1] 0.028 | [2] 0.013 | [3] 0.091 | [4] -0.064 | [5] -0.014 | [6] 0.036 | [7] 0.026 | [8] -0.044 | [9] 0.058 | [10] 0.039

PITRM1 isoform 2 (UniProt Q5JRX3)
inactive: [1] -0.001 | [2] -0.025 | [3] 0.053 | [4] 0.04 | [5] 0.029 | [6] 0.013 | [7] 0.006 | [8] -0.024 | [9] -0.023 | [10] -0.062

PIKFYVE (UniProt Q9Y2I7)
inactive: [1] -0.039 | [2] -0.06 | [3] -0.002 | [4] -0.058 | [5] -0.013 | [6] 0.01 | [7] -0.014 | [8] 0.029 | [9] -0.053 | [10] 0.066

PKN1 isoform 2 (UniProt Q16512)
inactive: [1] 0.038 | [2] -0.005 | [3] -0.032 | [4] 0.095 | [5] -0.014 | [6] -0.233 | [7] -0.005 | [8] 0.108 | [9] -0.069 | [10] 0.04

PIP4K2A (UniProt P48426)
active: [9] 0.301
inactive: [1] -0.04 | [2] 0.032 | [3] 0.019 | [4] -0.089 | [5] 0.05 | [6] 0.109 | [7] 0.014 | [8] -0.035 | [10] 0.005

More records follow.

PLEKHA5 isoform 6 (UniProt Q9HAU0)
inactive: [1] 0.003 | [2] -0.054 | [3] 0.006 | [4] -0.033 | [5] -0.032 | [6] 0.093 | [7] 0.002 | [8] -0.028 | [9] -0.061 | [10] 0.002

PLD1 (UniProt Q13393)
inactive: [1] -0.008 | [2] -0.001 | [3] -0.053 | [4] -0.158 | [5] -0.035 | [6] 0.061 | [7] 0.025 | [8] 0 | [9] -0.021 | [10] 0.095

PJA2 (UniProt O43164)
inactive: [1] 0.019 | [2] -0.007 | [3] -0.046 | [4] -0.113 | [5] 0.033 | [6] 0.045 | [7] -0.084 | [8] 0.019 | [9] -0.031 | [10] 0.054

PHKG2 (UniProt P15735)
inactive: [1] -0.07 | [2] -0.069 | [3] 0.166 | [4] 0 | [5] -0.008 | [6] 0.061 | [7] -0.051 | [8] 0.031 | [9] 0.015 | [10] -0.107

PHACTR2 isoform 4 (UniProt O75167)
inactive: [1] 0.075 | [2] -0.028 | [3] -0.015 | [4] 0.062 | [5] -0.21 | [6] -0.2 | [7] 0.292 | [8] 0.009 | [9] 0.093 | [10] 0.03

PHF10 (UniProt Q8WUB8)
inactive: [1] 0.065 | [2] -0.027 | [3] 0.055 | [4] 0.028 | [5] 0.044 | [6] -0.007 | [7] 0.098 | [8] -0.022 | [9] -0.057 | [10] 0.054

PGLS (UniProt O95336)
inactive: [1] 0.068 | [2] 0.011 | [3] 0 | [4] 0.206 | [5] 0.033 | [6] -0.084 | [7] 0.008 | [8] 0.004 | [9] -0.031 | [10] -0.14

PIGS (UniProt Q96S52)
inactive: [1] -0.075 | [2] -0.042 | [3] -0.061 | [4] 0.006 | [5] -0.05 | [6] -0.101 | [7] -0.009 | [8] -0.003 | [9] -0.062 | [10] 0.041

PI4KB (UniProt Q9UBF8)
inactive: [1] 0.02 | [2] 0.031 | [3] -0.011 | [4] -0.01 | [5] 0.005 | [6] 0.011 | [7] -0.02 | [8] 0.055 | [9] -0.073 | [10] 0.014

PGRMC1 (UniProt O00264)
inactive: [1] 0.001 | [2] -0.023 | [3] 0.057 | [4] -0.011 | [5] -0.024 | [6] 0.047 | [7] 0.035 | [8] -0.052 | [9] 0.004 | [10] 0.018

PIP4K2C (UniProt Q8TBX8)
inactive: [1] -0.043 | [2] 0.063 | [3] -0.036 | [4] -0.128 | [5] 0.033 | [6] 0.109 | [7] -0.06 | [8] 0.006 | [10] -0.032
active: [9] 0.664

PIGO (UniProt Q8TEQ8)
inactive: [1] 0.047 | [2] 0.133 | [3] -0.02 | [4] 0.019 | [5] 0.076 | [6] -0.193 | [7] 0.117 | [8] -0.186 | [9] -0.026 | [10] 0.037

PHKA2 (UniProt P46019)
inactive: [1] -0.085 | [2] -0.042 | [3] 0.048 | [4] 0.022 | [5] -0.01 | [6] -0.035 | [7] -0.015 | [8] 0.013 | [9] -0.109 | [10] -0.012

PKM (UniProt P14618)
inactive: [1] -0.007 | [2] -0.001 | [3] -0.023 | [4] -0.056 | [5] -0.006 | [6] 0.015 | [7] -0.023 | [8] -0.017 | [9] -0.009 | [10] 0.005

PHF6 (UniProt Q8IWS0)
inactive: [1] -0.007 | [2] -0.009 | [3] 0.03 | [4] 0.059 | [5] 0.075 | [6] -0.046 | [7] -0.041 | [8] 0.005 | [9] -0.02 | [10] -0.054

PIK3CA (UniProt P42336)
inactive: [1] -0.015 | [2] -0.001 | [3] 0.032 | [4] 0.025 | [5] -0.251 | [6] -0.052 | [7] 0.058 | [8] -0.027 | [9] -0.086 | [10] 0.01

PHF21A isoform 3 (UniProt Q96BD5)
inactive: [1] 0.024 | [2] 0.075 | [3] 0.038 | [4] -0.155 | [5] 0.037 | [6] -0.028 | [7] 0.005 | [8] 0.01 | [9] 0.031 | [10] 0.045
